Values joined by “and” are separate entries in the source; they are usually repeats but may differ in a detail not shown here. Equal values may be shown once. Some of the results follow. Repeats in this data set agree poorly, so a single value says little.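 HEK293T cells were given each compound shortly before transfection with a reporter in which red mCherry is followed by the SARS-CoV-2 frameshift element and then GFP in the −1 frame, so GFP appears only after frameshifting.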
Experiments:
[1] = test system: SARS-CoV-2 -1 PRF reporter mCherry-FSE-GFP(-1); assay: mCherry (red) intensity as percent of control; higher = higher upstream reporter expression; conditions: 10 µM; 24 h; HEK293T
[2] = test system: SARS-CoV-2 -1 PRF reporter mCherry-FSE-GFP(-1); assay: percent effect, decrease of GFP/mCherry ratio (-1 PRF reporter) relative to controls; higher = stronger frameshift inhibition; conditions: 10 µM; 24 h; HEK293T

Structure (SMILES) | mCherry [1] | percent effect [2]
CN(C)CCC(c1ccc(Cl)cc1)c1ccccn1 (centres undefined) [chlorphenamine] | 110% and 97.9% | -0.453% and -4.06%
NC(=O)Nc1ccc(S(=O)(=O)c2ccc(N)cc2)cc1 [amidapsone] | 75.8% | -4.47%
NC(N)=NC(N)=NCCc1ccccc1 | 96.8% | -1.72%
C[N+](C)(C)CCO.[Cl-] [choline chloride] | 84.8% | -2.33%
CN1CCN(CCCN2c3ccccc3Sc3ccc(Cl)cc32)CC1 [prochlorperazine] | 31.6% | -8.58%
Cc1c(Cl)cc(C(C)C)c(O)c1Cc1c(C)c(Cl)cc(C(C)C)c1O [biclotymol] | 84.3% | -9.38%
OC[C@@H](O)[C@@H](O[C@@H]1O[C@H](CO)[C@H](O)[C@H](O)[C@H]1O)[C@H](O)[C@@H](O)CO [lactitol] | 63.6% | -8.12%
Cc1cc(C(C)(C)C)c(O)c(C)c1CC1=NCCN1 [oxymetazoline] | 116% and 111% | -2.36% and 2.59%
O=C(O)c1cc(O)c2c3nc4ccccc4oc-3cc(=O)c2n1 [pirenoxine] | 95.3% | -5.28%
COC(=O)C[C@](O)(CCCC(C)(C)O)C(=O)O[C@@H]1C(OC)=C[C@]23CCCN2CCc2cc4c(cc2[C@H]13)OCO4 [omacetaxine mepesuccinate] | 13% | -4.23%
COc1cc(/C=C/C(=O)N2CCN(CC(=O)N3CCCC3)CC2)cc(OC)c1OC [cinepazide] | 93.4% | -1.32%
C[C@@H]1NC(=O)[C@@H](N)CNC(=O)[C@H](C2CCNC(=N)N2)NC(=O)/C(=C/NC(N)=O)NC(=O)[C@H](CNC(=O)CC(N)CCCN)NC1=O.N=C1NCCC([C@@H]2NC(=O)/C(=C/NC(N)=O)NC(=O)[C@H](CNC(=O)CC(N)CCCN)NC(=O)[C@H](CO)NC(=O)[C@@H](N)CNC2=O)N1 (some centres undefined) | 73.6% | -4.17%
CCC[C@H](N[C@@H](C)C(=O)N1[C@H](C(=O)O)C[C@@H]2CCCC[C@@H]21)C(=O)O [perindoprilat] | 97.7% | -3%
N.N.O=C([O-])C[O-].[Pt+2] [Nedaplatin] | 104% | -1.82%
C[C@]12CCC(=O)C=C1CC[C@H]1[C@@H]3CC[C@](O)(C(=O)CO)[C@@]3(C)C[C@H](O)[C@@]12F [fludrocortisone] | 121% | -8.75%
O=C(CCCN1CCC(O)(c2cccc(C(F)(F)F)c2)CC1)c1ccc(F)cc1 [trifluperidol] | 94.8% | 0.543%
C#CCOC[C@H]1CO[C@](Cn2ccnc2)(c2ccc(Cl)cc2Cl)O1 [parconazole] | 69.3% | -1.89%
CCCC1C(=O)N2C(N(C)C)=Nc3ccc(C)cc3N2C1=O (centres undefined) [azapropazone] | 66.6% | -1%
CC[C@]12CN3CCc4c([nH]c5ccccc45)[C@@](C(=O)OC)(c4cc5c(cc4OC)N(C)[C@H]4[C@@](O)(C(=O)OC)[C@H](OC(C)=O)[C@]6(CC)C=CCN7CC[C@]54[C@@H]76)C[C@@H](C3)[C@H]1O2 [vinleurosine] | 131% | -3.19%
CC(=O)OCC(=O)[C@@]1(O)CC[C@H]2[C@@H]3CCC4=CC(=O)CC[C@]4(C)[C@H]3C(=O)C[C@@]21C | 101% | -3.98%
C=CC[N+]1([C@H]2C[C@H]3[C@@H]4CC[C@H]5C[C@H](O)[C@@H](N6CCOCC6)C[C@]5(C)[C@H]4CC[C@]3(C)[C@H]2OC(C)=O)CCCC1 [rocuronium bromide] | 91% | -0.0577%
C#C[C@]1(OC(C)=O)CC[C@H]2[C@@H]3CCC4=C/C(=N/O)CC[C@@H]4[C@H]3CC[C@@]21CC | 124% | 3.77%
CC[C@]12CN3CCc4c([nH]c5ccccc45)[C@@](C(=O)OC)(c4cc5c(cc4OC)N(C=O)[C@H]4[C@@](O)(C(=O)OC)[C@H](OC(C)=O)[C@]6(CC)C=CCN7CC[C@]54[C@@H]76)C[C@@H](C3)[C@H]1O2 [vinformide] | 106% | 1.56%
O=C(/C=C/C=C/c1ccc2c(c1)OCO2)N1CCCCC1 | 128% | -8.72%
CO/N=C(\C(=O)N[C@@H]1C(=O)N2C(C(=O)O)=C(C[N+]3(C)CCCC3)CS[C@H]12)c1csc(N)n1 [Maxipeme] | 92.7% | -3.73%
COc1cc([C@@H]2Oc3c(O)cc([C@H]4Oc5cc(O)cc(O)c5C(=O)[C@@H]4O)cc3[C@H]2CO)ccc1O [silicristin] | 101% | -3.71%
COc1ccccc1O [Guaiacol] | 84.5% | 0.0712%

Single records, as listed above:
`C[C@@H]1NC(=O)[C@@H](N)CNC(=O)[C@H](C2CCNC(=N)N2)NC(=O)/C(=C/NC(N)=O)NC(=O)[C@H](CNC(=O)CC(N)CCCN)NC1=O.N=C1NCCC([C@@H]2NC(=O)/C(=C/NC(N)=O)NC(=O)[C@H](CNC(=O)CC(N)CCCN)NC(=O)[C@H](CO)NC(=O)[C@@H](N)CNC2=O)N1` (some centres undefined) reads mCherry [1]: 73.6%; percent effect [2]: -4.17%
`C=CC[N+]1([C@H]2C[C@H]3[C@@H]4CC[C@H]5C[C@H](O)[C@@H](N6CCOCC6)C[C@]5(C)[C@H]4CC[C@]3(C)[C@H]2OC(C)=O)CCCC1` [rocuronium bromide] reads mCherry [1]: 91%; percent effect [2]: -0.0577%

Reference: the supplement of paper PMC8256030
